Measurements from article PMC7641737.
These are yes or no findings as the source states them, for the method shown. In cells and extracts the contact can be indirect. Some entries that bind do so weakly or less than the wild type.

Sequences of proteins named here, by UniProt entry; tags and fusion partners are left off.
UniProt Q9UBL3: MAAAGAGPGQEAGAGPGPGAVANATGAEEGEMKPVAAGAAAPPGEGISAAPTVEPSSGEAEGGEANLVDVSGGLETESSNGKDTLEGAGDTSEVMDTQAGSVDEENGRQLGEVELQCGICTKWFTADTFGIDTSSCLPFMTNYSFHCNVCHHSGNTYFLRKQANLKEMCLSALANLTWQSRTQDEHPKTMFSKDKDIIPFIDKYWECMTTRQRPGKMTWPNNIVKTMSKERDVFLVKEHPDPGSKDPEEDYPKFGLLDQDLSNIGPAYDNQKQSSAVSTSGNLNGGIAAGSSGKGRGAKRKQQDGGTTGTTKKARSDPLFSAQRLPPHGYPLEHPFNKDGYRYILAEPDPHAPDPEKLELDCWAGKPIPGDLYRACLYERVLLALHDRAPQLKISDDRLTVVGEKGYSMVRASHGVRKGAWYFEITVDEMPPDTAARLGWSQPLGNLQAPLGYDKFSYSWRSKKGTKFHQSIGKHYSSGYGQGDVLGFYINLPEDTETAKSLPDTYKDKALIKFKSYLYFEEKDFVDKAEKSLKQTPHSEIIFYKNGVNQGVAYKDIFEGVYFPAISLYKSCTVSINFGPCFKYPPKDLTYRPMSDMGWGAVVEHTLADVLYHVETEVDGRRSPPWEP
UniProt Q9C005: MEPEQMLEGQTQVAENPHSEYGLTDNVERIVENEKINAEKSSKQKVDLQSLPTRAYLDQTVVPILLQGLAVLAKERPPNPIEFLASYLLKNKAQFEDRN

Experiments:
[1] = biological target: Estrogen receptor alpha (ERα), endogenous (human (endogenous in MCF7 and T47D)) (UniProt P03372); assay: co-IP; endogenous proteins in T47D cells carrying control shRNA or shBAP18; immunoprecipitated with anti-ERα or IgG; blots with antibodies against COMPASS-like core proteins, BAP18 and ERα
[2] = biological target: Estrogen receptor alpha (ERα), endogenous (human (endogenous in MCF7 and T47D)) (UniProt P03372); assay: co-IP; endogenous proteins in MCF7 cells (Figure 3C, D)
[3] = biological target: Estrogen receptor alpha (ERα), endogenous (human (endogenous in MCF7 and T47D)) (UniProt P03372); assay: co-IP; endogenous BAP18 and ERα in T47D cells with depletion of each COMPASS-like core protein (WDR5, ASH2L, DPY30); precipitating antibody not stated

Row | binding [1] | binding [2] | binding [3] | Substance
1 | binds | – | – | ASH2L, endogenous (from UniProt Q9UBL3 1-628)
2 | binds | binds | binds | BAP18, endogenous (from UniProt Q8IXM2 1-172)
3 | binds | – | – | DPY30, endogenous (from UniProt Q9C005 1-99)
